According to article doi:10.1101/2020.06.09.20127068:
Results are given in words; binding and its absence hold for the method and conditions named. Binding seen in cells or lysates may run through a third protein. Some entries that bind do so weakly or less than the wild type.

Sequences of proteins named here, by UniProt entry; tags and fusion partners are left off.
UniProt Q13568: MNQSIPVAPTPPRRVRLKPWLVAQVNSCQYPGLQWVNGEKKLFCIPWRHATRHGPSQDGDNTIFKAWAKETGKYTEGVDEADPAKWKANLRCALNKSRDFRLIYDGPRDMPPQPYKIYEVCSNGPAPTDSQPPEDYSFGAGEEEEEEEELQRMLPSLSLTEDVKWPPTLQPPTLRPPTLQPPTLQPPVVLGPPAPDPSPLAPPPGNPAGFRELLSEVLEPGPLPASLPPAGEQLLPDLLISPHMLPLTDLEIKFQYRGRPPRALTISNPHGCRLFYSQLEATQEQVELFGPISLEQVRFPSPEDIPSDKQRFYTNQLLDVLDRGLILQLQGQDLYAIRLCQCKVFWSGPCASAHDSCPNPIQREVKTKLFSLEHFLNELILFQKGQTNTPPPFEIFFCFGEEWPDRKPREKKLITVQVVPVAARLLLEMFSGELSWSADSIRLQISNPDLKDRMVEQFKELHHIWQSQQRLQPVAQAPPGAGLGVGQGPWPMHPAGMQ
UniProt P30279: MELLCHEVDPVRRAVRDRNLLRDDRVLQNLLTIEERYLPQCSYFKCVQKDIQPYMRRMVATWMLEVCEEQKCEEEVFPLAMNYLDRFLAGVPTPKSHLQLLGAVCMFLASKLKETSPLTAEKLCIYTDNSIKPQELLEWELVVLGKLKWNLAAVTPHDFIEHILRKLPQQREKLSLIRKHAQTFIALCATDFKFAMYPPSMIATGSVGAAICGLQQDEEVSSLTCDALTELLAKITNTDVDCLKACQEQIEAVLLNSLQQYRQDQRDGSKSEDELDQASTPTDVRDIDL

Molecular target: T1, FBXL8 (human (endogenous in MCF7 and MDA-MB231)) (UniProt Q96CD0)
T1 sequence: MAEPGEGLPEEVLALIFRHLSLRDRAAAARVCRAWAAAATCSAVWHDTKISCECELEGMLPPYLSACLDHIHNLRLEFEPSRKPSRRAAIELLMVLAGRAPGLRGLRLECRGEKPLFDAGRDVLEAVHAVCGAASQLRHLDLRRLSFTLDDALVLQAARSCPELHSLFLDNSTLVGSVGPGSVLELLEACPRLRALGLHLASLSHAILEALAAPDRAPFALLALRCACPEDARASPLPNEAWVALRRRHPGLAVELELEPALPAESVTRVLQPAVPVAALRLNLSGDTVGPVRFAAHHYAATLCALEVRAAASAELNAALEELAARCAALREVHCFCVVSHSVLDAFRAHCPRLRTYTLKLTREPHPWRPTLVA
Assay: co-IP

binding	Substance
binds	IRF5 (Interferon Regulatory Factor 5) (from UniProt Q13568 1-498)
binds	CCND2 (Cyclin D2) (from UniProt P30279 1-289)
